According to paper PMC9484696:
Results are given in words; binding and its absence hold for the method and conditions named. Some results given as binding are weak or reduced against the parent protein; the word gives no strength.

By UniProt entry, the sequences of proteins in these tests, tags left out. Residues count along the entry.
UniProt Q0IF93, residues 22-332: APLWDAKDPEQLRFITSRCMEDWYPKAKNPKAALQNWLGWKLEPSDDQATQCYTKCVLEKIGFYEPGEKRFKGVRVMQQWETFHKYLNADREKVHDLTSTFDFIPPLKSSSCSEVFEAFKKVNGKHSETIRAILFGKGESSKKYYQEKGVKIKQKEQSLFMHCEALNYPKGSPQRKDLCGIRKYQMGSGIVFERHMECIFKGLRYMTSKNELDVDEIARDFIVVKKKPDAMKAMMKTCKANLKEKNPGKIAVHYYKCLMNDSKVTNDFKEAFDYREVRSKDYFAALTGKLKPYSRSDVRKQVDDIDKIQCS
UniProt Q9NNX6, residues 58-380: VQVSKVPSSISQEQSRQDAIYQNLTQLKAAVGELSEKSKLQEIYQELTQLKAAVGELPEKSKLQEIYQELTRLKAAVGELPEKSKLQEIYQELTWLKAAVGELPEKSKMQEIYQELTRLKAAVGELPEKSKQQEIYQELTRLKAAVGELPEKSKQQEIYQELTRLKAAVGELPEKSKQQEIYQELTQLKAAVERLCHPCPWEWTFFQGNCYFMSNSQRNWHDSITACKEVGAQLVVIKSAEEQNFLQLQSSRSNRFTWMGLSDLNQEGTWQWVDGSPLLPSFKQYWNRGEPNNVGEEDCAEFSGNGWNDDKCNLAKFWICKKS

Tests used:
[1] = biological target: T1, recombinant Ae. aegypti venom allergen 1 (AaVA-1) (Aedes aegypti); experiment: ELISA; 5 μg salivary gland protein coated overnight at 4°C on high binding 96-well plates, blocked with 1% BSA in PBST; 1 μg CD4 or DC-SIGN ectodomain added at 37°C for 1 h; detected with rabbit anti-CD4 or HRP anti-DC-SIGN monoclonal antibody, TMB, read at 450 nm; both purified
T1 sequence: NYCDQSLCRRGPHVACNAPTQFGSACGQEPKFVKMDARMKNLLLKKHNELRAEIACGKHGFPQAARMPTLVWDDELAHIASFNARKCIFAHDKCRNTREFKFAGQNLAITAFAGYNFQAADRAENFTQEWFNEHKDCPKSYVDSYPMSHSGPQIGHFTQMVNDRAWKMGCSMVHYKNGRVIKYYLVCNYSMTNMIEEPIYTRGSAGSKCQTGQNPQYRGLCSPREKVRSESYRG

[2] = biological target: recombinant D7 (AAEL006417) (Aedes aegypti) (UniProt Q0IF93); experiment: as above

“ectodomain of human DC-SIGN (58-380 amino acid residues), recombinant (from UniProt Q9NNX6 58-380) (domain or fragment)” was tested, and the binding [1] was “binds weakly” and the binding [2] was “no binding (tested: 1 μg DC-SIGN)”.
